Patent publication US6566088
No constants are given. Whether binding was seen depends on the method and setting. Binding seen in cells or lysates may run through a third protein. Some binding calls cover weakened binding; strength is not graded here.

Chains of the proteins cited; added tags and fusions are not shown.
UniProt P40337: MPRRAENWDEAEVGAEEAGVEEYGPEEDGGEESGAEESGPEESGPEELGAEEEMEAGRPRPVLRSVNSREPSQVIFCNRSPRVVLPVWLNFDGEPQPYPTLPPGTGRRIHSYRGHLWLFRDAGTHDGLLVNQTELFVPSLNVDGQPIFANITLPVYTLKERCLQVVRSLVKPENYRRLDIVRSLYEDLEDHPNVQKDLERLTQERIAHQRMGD

Columns and labels:
[1] = target: T1, Biotinylated human HIF-1a ODD peptide with L562A, Pro564 hydroxylated (human); experiment: [^35S]-pVHL pull-down with synthetic Pro564-hydroxylated biotinylated peptide on streptavidin beads
T1 sequence (peptide, N-terminal biotin; hydroxyproline at Pro564): DLDLEAAAPYIPADDDFQL

[2] = target: T2, Biotinylated human HIF-1a ODD peptide with Pro567 to Gly, Pro564 hydroxylated (human); experiment: as above
T2 sequence (peptide, N-terminal biotin; hydroxyproline at Pro564): DLDLEALAPYIGADDDFQL

[3] = target: T3, Biotin-Acp-…*…, human HIF-1a ODD peptide, wild type, Pro564 hydroxylated (human); experiment: as above
T3 sequence (peptide, N-terminal Biotin-Acp; hydroxyproline at Pro564 (P* of the printed peptide)): DLDLEALAPYIPADDDFQL

[4] = target: T3, Biotin-Acp-…*…, human HIF-1a ODD peptide, wild type, Pro564 hydroxylated (human); experiment: [^35S]-pVHL pull-down on streptavidin beads after treatment of the bead-bound peptide with in vitro translated HPH 1; scintillation counting

Measured: binding

[^35S]-labeled human pVHL (von Hippel Lindau tumor suppressor protein) (from UniProt P40337 1-213)
binds: all assays above
